Screen size: about 350,000 compounds; about 6,000 (1.7%) were called active. The inconclusive results got no clear call from the source; some entries with a clear call stand among them for comparison. Cut-off read from the data, not from the text of the source: active = CPE inhibition above about 20% (passing the limit was not always enough); inconclusive = no clear call, values can overlap the other calls; tested in BHK-21 cells.
Test: protection of cells from dengue 2 killing – plate reader, single concentration, primary screen (AID 651640);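 note: 0% = median of neutral control wells and 100% = median of positive control wells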
Conditions: DENV2-infected cells, cytopathic effect rescue, at 9.99 µM, stronger effect = higher value

SMILES	CPE inhibition
Cc1ccc(S(=O)(=O)N(C)C[C@@H]2Oc3c(NC(=O)Nc4c(C)noc4C)cccc3C(=O)N([C@@H](C)CO)C[C@H]2C)cc1	inactive: -1.39%
Cc1noc(C)c1NC(=O)N(C)C[C@@H]1OCCCC[C@H](C)Oc2ccc(NC(=O)NC3CCCCC3)cc2C(=O)N([C@H](C)CO)C[C@@H]1C	inactive: -0.006%
O=C([C@@H]1[C@@H](CO)[C@@H]2Cn3c(ccc(C4=CCCC4)c3=O)[C@H]1N2C(=O)c1ccccc1)N1CCOCC1	inconclusive: 58%
CNC[C@@H]1Oc2ccc(NS(=O)(=O)c3ccc(C)cc3)cc2CC(=O)N([C@H](C)CO)C[C@H]1C	active: 41.6%
O=C(C[C@H]1C/C=C\CC[C@H](Cc2ccc(F)cc2)C(=O)O[C@@H](c2ccccc2)CNC1=O)N[C@H](CO)Cc1ccccc1	active: 85.5%
COc1cc2ncc(S(=O)(=O)c3ccccc3)c(N3CCCC(C)C3)c2cc1OC (stereo not given)	inconclusive: 20.8%
COc1ccc2c3c([nH]c2c1)[C@H](CO)N(C(=O)c1cccc(F)c1)CC31CN(S(=O)(=O)c2cccs2)C1	inconclusive: 29.3%
Cc1cc(=O)oc2cc(OCCCN3C(=O)c4ccccc4C3=O)ccc12	inconclusive: 26.3%
CCOC1=C2CN(S(=O)(=O)c3ccc(C)cc3)C(c3cccc(Cl)c3)CC2N(S(=O)(=O)c2ccc(Cl)cc2)C(c2ccccc2)C1 (stereo not given)	active: 31.6%
O=C(NCc1ccc(F)cc1)Nc1nnc([C@@H]2C[C@H](O)[C@@H](CO)O2)s1	inconclusive: 37.8%
O=C(COC(=O)c1ccc(F)c(S(=O)(=O)N2CCOCC2)c1)NCCc1ccc(F)cc1	inconclusive: 25.1%
COc1cccc(CNC(=O)[C@@H]2[C@@H](CO)[C@@H]3Cn4c(ccc(C5=CCCCC5)c4=O)[C@H]2N3)c1	inactive: 7.8%
O=C(c1cc([N+](=O)[O-])ccc1N1CCOCC1)N1CCOCC1	inactive: -4.16%
O=C(N[C@H]1CC[C@H](CCNS(=O)(=O)c2ccc(Cl)cc2)O[C@H]1CO)c1ccccn1	active: 59.7%
O=C(Nc1cc(F)ccc1F)N[C@@H]1CC[C@H](CCNC(=O)c2cnccn2)O[C@H]1CO	active: 32.5%
O=C(CCCCCn1c(=S)[nH]c2cc3c(cc2c1=O)OCO3)N1CCN(c2ccc(F)cc2)CC1	inconclusive: 27.8%
COc1ccc(NC(=O)CN(C)C(=O)c2cn(-c3ccccc3)nc2-c2cccnc2)cc1	inconclusive: 38.8%
NC(=O)NC1NC(=O)NC1=O (stereo not given)	inconclusive: 32.3%
CO[C@H]1CN(C)C(=O)c2ccc(NS(=O)(=O)c3ccccc3)cc2OC[C@@H](C)N(Cc2nccs2)C[C@@H]1C	inactive: -6.98%
C[C@@H]1CN([C@@H](C)CO)C(=O)c2cc(NC(=O)Nc3cccc4ccccc34)ccc2O[C@H]1CN(C)Cc1ccc(Oc2ccccc2)cc1	active: 29.3%
Cc1ccc(S(=O)(=O)Nc2cccc(S(=O)(=O)Nc3ccccc3C(=O)O)c2)c(C)c1	inactive: -2.36%
COC(=O)C[C@H]1C[C@H]2c3cc(NC(=O)Cc4ccncc4)ccc3O[C@H]2[C@@H](CO)O1	inconclusive: 50.2%
O=C(C[C@@H]1C[C@H]2c3cc(NC(=O)CC4CC4)ccc3O[C@H]2[C@H](CO)O1)NCCN1CCCCC1	inactive: 5.74%
CCC(=O)N(C)C[C@H]1Oc2ncc(-c3ccccc3C)cc2C(=O)N([C@@H](C)CO)C[C@H]1C	inconclusive: 57%

Retrieved one by one from the entries so far, three records:
SMILES	CPE inhibition
O=C(N[C@H]1CC[C@H](CCNS(=O)(=O)c2ccc(Cl)cc2)O[C@H]1CO)c1ccccn1	active: 59.7%
COc1cc2ncc(S(=O)(=O)c3ccccc3)c(N3CCCC(C)C3)c2cc1OC (stereo not given)	inconclusive: 20.8%
O=C(Nc1cc(F)ccc1F)N[C@@H]1CC[C@H](CCNC(=O)c2cnccn2)O[C@H]1CO	active: 32.5%

(more compounds)

SMILES	CPE inhibition
NC(=O)c1cc(S(=O)(=O)NCCCc2ccccc2)cs1	inconclusive: 21%
COc1ccc(S(=O)(=O)N(C)C[C@@H]2Oc3ccc(NC(=O)Nc4ccc(F)cc4)cc3CC(=O)N([C@@H](C)CO)C[C@@H]2C)cc1	inactive: -6.61%
C[C@@H]1CCCCO[C@H](CN(C)Cc2ccncc2)[C@@H](C)CN([C@@H](C)CO)C(=O)c2cc(NC(=O)Nc3ccc4c(c3)OCO4)ccc2O1	active: 27.8%
C[C@@H]1CN([C@H](C)CO)C(=O)c2cccc(NC(=O)C3CCOCC3)c2O[C@@H]1CN(C)Cc1ccc(C(F)(F)F)cc1	active: 39%
O=C(CSc1nc(=O)n2ccccc2n1)N1CCCc2ccccc21	active: 67.6%
Cn1cnc(CCNC(=O)C[C@H]2CC[C@@H]3[C@H](COC[C@H](O)CN3C(=O)Nc3ccc(Cl)cc3)O2)c1	inactive: -6.43%
CC1(C)COC(c2ccc(F)c([N+](=O)[O-])c2)=N1	active: 33.5%
O=C(COc1ccccc1)NNC(=O)c1ccc(Cl)cc1	inconclusive: 69.6%
CSc1nncn1/N=C/c1ccc([N+](=O)[O-])cc1	inactive: -2.55%
O=C(CC1C(=O)NCCN1Cc1ccc(Cl)c(F)c1)NC1CCCCC1 (stereo not given)	inconclusive: 42.1%
O=C(COC(=O)CN1C(=O)C2CCCCC2C1=O)NC1CCS(=O)(=O)C1 (stereo not given)	inconclusive: 22.7%
Cc1noc(C)c1NC(=O)Nc1ccc2c(c1)C(=O)N([C@@H](C)CO)C[C@H](C)[C@H](CN(C)C(=O)CCCN(C)C)OCCCC[C@H](C)O2	inconclusive: 31.6%
CCC(=O)N(C)C[C@H]1Oc2ncc(-c3ccccc3OC)cc2C(=O)N([C@H](C)CO)C[C@@H]1C	inconclusive: 64%
CNC[C@@H]1Oc2ccc(NS(=O)(=O)c3cn(C)cn3)cc2CC(=O)N([C@H](C)CO)C[C@@H]1C	inactive: -4.04%
O=C(Nc1ccccc1F)c1ccc(S(=O)(=O)N2CCCCCC2)cc1	inconclusive: 29.9%
NNC(=O)c1csc(-c2cccc(C(F)(F)F)c2)n1	inconclusive: 22.6%
CC(C)CCn1c(=O)c2ccccc2n2c(CCC(=O)NC3CCN(Cc4ccccc4)CC3)nnc12	inactive: -7.01%
COc1cc(CN2CCC(n3nccc3NC(=O)C3CC3)CC2)cc(OC)c1	inconclusive: 21.8%
O=C1/C(=C/c2cccc([N+](=O)[O-])c2)Oc2cc(O)ccc21	inconclusive: 21.6%
Oc1ccc(N2CCN(Cc3ccc(OCCCN4CCCCC4)cc3)CC2)cc1	inconclusive: 22%
CCc1cnc(N2[C@@H](C#N)[C@@H](c3ccccc3C3=CCCC3)[C@@H]2CO)s1	active: 20.4%
Cc1ccc(CNc2ccccc2C(=O)O)s1	inconclusive: 24.2%
CN(C)S(=O)(=O)c1ccc(Cl)c(C(=O)Nc2ccc(S(=O)(=O)N3CCOCC3)cc2)c1	inconclusive: 21.3%
Cc1ccc2c(c1)N(CC(=O)Nc1ncccc1C)C(=O)C(C(C)C)O2 (stereo not given)	inconclusive: 23.6%

SMILES	CPE inhibition
CC1Cc2ccccc2N1S(=O)(=O)c1cccc(C(=O)NNC(=O)c2ccccc2F)c1 (stereo not given)	inconclusive: 31.9%
CCCN(C)C[C@H]1Oc2cc(C#CCN(C)C)ccc2S(=O)(=O)N([C@@H](C)CO)C[C@H]1C	inconclusive: 20.7%
CC=Cc1ccc2n(c1=O)C[C@H]1[C@H](CO)[C@@H](C(=O)NCC3CC3)[C@@H]2N1S(=O)(=O)c1cn(C)cn1 (mixture of isomers)	inconclusive: 57.7%
O=C(NN1CCOCC1)c1ccc(Cl)cc1[N+](=O)[O-]	inactive: -3.92%
CCC(=O)Nc1ccccc1-c1nc2ccccc2[nH]c1=O	inconclusive: 50.2%
CC=Cc1ccc2n(c1=O)C[C@@H]1[C@@H](CO)[C@H](C(=O)NCC3CC3)[C@H]2N1Cc1cccnc1 (mixture of isomers)	inconclusive: 45.5%
COC(=O)C1CN(C(=O)C(C)Oc2cccc(C)c2C)c2ccccc2O1 (stereo not given)	inconclusive: 21.2%
O=C(NCc1ccccc1)c1cc(C2CCCCN2C(=O)CCc2ccccc2)on1 (stereo not given)	inconclusive: 70.9%
COc1ccc(CN2[C@H](CO)[C@H]3c4ccccc4N(C(=O)NC(C)C)C[C@H]32)cc1	inactive: -2.95%
CCCNC(=O)N1C[C@H]2[C@@H](c3ccccc31)[C@@H](CO)N2Cc1ccc(F)cc1	inconclusive: 25.1%
Cc1ccccc1S(=O)(=O)N1CC[C@@H]2[C@@H](CO)Nc3ccc(-c4cccc(C#N)c4)cc3[C@@H]21	active: 64.6%
C[C@H]1CN([C@@H](C)CO)C(=O)c2cccc(NS(=O)(=O)c3ccc(F)cc3)c2O[C@@H]1CN(C)Cc1ccc(Cl)c(Cl)c1	active: 23%
COc1ccc2c3c([nH]c2c1)[C@H](CO)N(C(=O)c1ccccn1)CC31CCN(C(=O)C2CCCC2)CC1	inactive: -8.27%
CCCCNC(=O)C[C@@H]1C[C@@]2(C(=O)OC)CCCCC=C2N(Cc2ccccc2)C1=O	inconclusive: 48.5%
COc1cc(CN2CC3(CN(S(=O)(=O)c4cn(C)cn4)C3)c3c(n(C)c4cc(OC)ccc34)[C@H]2CO)cc(OC)c1	active: 58.8%
CCCc1c(-c2ccccc2Br)ncn1Cc1ccccc1OC	inconclusive: 20.2%
CN1c2ccc(-c3ccccc3F)cc2[C@@H]2[C@@H](CCN2S(=O)(=O)c2ccccc2)[C@@H]1CO	inactive: 2.64%
O=C(C[C@H]1C[C@H]2c3cc(NC(=O)CC4CC4)ccc3O[C@H]2[C@H](CO)O1)NCC1CC1	inconclusive: 27.6%
Cc1c(Br)c([N+](=O)[O-])nn1CC(=O)N1CCc2ccccc2C1	inactive: 8.51%
COc1ccc(-c2c(C#Cc3ccc(N(C)C)cc3)c3ccccc3n2C)cc1	inactive: -0.909%
CC1(C(=O)NS(=O)(=O)c2cccc(OC(F)F)c2)CCN1C(=O)c1ccccc1CCc1ccccc1 (stereo not given)	inactive: -1.93%
C[C@H](CO)N1C[C@H](C)[C@@H](CN(C)S(=O)(=O)c2cn(C)cn2)OCCCC[C@H](C)Oc2ccc(NC(=O)Cc3ccccc3)cc2C1=O	active: 123%

Reference: PubChem BioAssay AID651640 (Broad Institute, 2012)
